The text below walks through data of article PMC4731781, “The β2 clamp in the Mycobacterium tuberculosis DNA polymerase III αβ2ε replicase promotes polymerization and reduces exonuclease activity” (Scientific Reports, 2016).

In this assay the target is T1, Mtb DNA Pol III β2 clamp, endogenous in Mtb H37Rv (Mycobacterium tuberculosis (endogenous in Mtb H37Rv)) (UniProt P9WNU1).
T1 sequence: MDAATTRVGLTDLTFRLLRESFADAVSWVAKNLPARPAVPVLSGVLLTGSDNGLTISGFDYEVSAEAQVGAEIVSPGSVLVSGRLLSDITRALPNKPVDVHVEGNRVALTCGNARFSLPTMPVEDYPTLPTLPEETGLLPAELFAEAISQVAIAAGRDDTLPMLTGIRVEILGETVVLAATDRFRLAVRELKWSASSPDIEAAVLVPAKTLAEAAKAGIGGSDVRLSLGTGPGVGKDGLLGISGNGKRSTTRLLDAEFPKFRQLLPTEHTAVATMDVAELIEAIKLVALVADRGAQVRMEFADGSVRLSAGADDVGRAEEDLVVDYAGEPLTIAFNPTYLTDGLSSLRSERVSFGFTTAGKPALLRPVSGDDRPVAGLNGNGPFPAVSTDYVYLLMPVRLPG
The assay can be described thus: co-IP.

No constants are given. Whether binding was seen depends on the method and setting. In cells and extracts the contact can be indirect. Some binding calls cover weakened binding; strength is not graded here. Sequences can lack the tags named with a protein.

B1: Mtb DNA Pol III α subunit, endogenous in Mtb H37Rv (enzyme, UniProt P9WNT7 1-1184)
chain: MSGSSAGSSFVHLHNHTEYSMLDGAAKITPMLAEVERLGMPAVGMTDHGNMFGASEFYNSATKAGIKPIIGVEAYIAPGSRFDTRRILWGDPSQKADDVSGSGSYTHLTMMAENATGLRNLFKLSSHASFEGQLSKWSRMDAELIAEHAEGIIITTGCPSGEVQTRLRLGQDREALEAAAKWREIVGPDNYFLELMDHGLTIERRVRDGLLEIGRALNIPPLATNDCHYVTRDAAHNHEALLCVQTGKTLSDPNRFKFDGDGYYLKSAAEMRQIWDDEVPGACDSTLLIAERVQSYADVWTPRDRMPVFPVPDGHDQASWLRHEVDAGLRRRFPAGPPDGYRERAAYEIDVICSKGFPSYFLIVADLISYARSAGIRVGPGRGSAAGSLVAYALGITDIDPIPHGLLFERFLNPERTSMPDIDIDFDDRRRGEMVRYAADKWGHDRVAQVITFGTIKTKAALKDSARIHYGQPGFAIADRITKALPPAIMAKDIPLSGITDPSHERYKEAAEVRGLIETDPDVRTIYQTARGLEGLIRNAGVHACAVIMSSEPLTEAIPLWKRPQDGAIITGWDYPACEAIGLLKMDFLGLRNLTIIGDAIDNVRANRGIDLDLESVPLDDKATYELLGRGDTLGVFQLDGGPMRDLLRRMQPTGFEDVVAVIALYRPGPMGMNAHNDYADRKNNRQAIKPIHPELEEPLREILAETYGLIVYQEQIMRIAQKVASYSLARADILRKAMGKKKREVLEKEFEGFSDGMQANGFSPAAIKALWDTILPFADYAFNKSHAAGYGMVSYWTAYLKANYPAEYMAGLLTSVGDDKDKAAVYLADCRKLGITVLPPDVNESGLNFASVGQDIRYGLGAVRNVGANVVGSLLQTRNDKGKFTDFSDYLNKIDISACNKKVTESLIKAGAFDSLGHARKGLFLVHSDAVDSVLGTKKAEALGQFDLFGSNDDGTGTADPVFTIKVPDDEWEDKHKLALEREMLGLYVSGHPLNGVAHLLAAQVDTAIPAILDGDVPNDAQVRVGGILASVNRRVNKNGMPWASAQLEDLTGGIEVMFFPHTYSSYGADIVDDAVVLVNAKVAVRDDRIALIANDLTVPDFSNAEVERPLAVSLPTRQCTFDKVSALKQVLARHPGTSQVHLRLISGDRITTLALDQSLRVTPSPALMGDLKELLGPGCLGS
B1: the binding entry was “binds”.
